The source of these data is US20130196903A1 (priority 2010, published 2013).

The nature of this series: general procedure: Fmoc solid-phase peptide synthesis; Champion PEG-PS resin with Fmoc-Rink linker; AM-Polystyrene LL resin (100-200 mesh, Novabiochem) with modified Rink link; HBTU/DIEA; HATU/DIEA with HOBt. Conditions: whole synthesis, acetate salt (13, 15); for final HPLC purity: 214 nm.

Turning to “Ac-VALDPIDISIVLNKAKSDLEESKEWIRRSNGKLDSIGSGSG-C—NH2”, the “final HPLC purity” value is 95% and the isolated yield is on record as 10%.
Regarding “Ac-VALDPIDISIVLNKIKSDLEESKEWIRRSNKILDSIGSGSG-C—NH2”, the “final HPLC purity” value is on record as 95% and the isolated yield is 10%.
As for “Ac-WMEWDREINNYTSLIHSLIEESQNQQEKNEQELLGSG-C—NH2”, the “final HPLC purity” value is reported as “above 97%”.
